Measured values as given in article PMC6853979, “Structures of GapR reveal a central channel which could accommodate B-DNA”.
The exact form of at least one protein or probe is not confirmed. For some assays here: Negatives hold for the conditions tested. For some assays here: At least one verdict rests on a figure or table, not on a statement of the authors. For some assays here: Protein sequences can lack the tags named with them.

Legend:
[1] = tested on: GapR6KtoE (Caulobacter crescentus); assay: EMSA; settings: 0.425 uM tetramer, 1.7 uM DNA; EMSA: 10 mM Tris pH 7.5, 50 mM NaCl, 1 mM EDTA; 8% gel in 0.5x TBE pH 8.3 at 4 C; recombinant protein
[2] = biological target: T1, GapR (Caulobacter crescentus) (UniProt Q9A385); assay: analytical SEC; settings: 6.25 uM tetramer, 20 uM DNA; recombinant protein
T1 sequence (looked up, limits assumed): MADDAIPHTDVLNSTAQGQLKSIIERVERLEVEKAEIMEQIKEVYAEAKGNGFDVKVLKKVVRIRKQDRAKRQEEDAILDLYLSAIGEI

GTTAAGCAACCGTTAACGG (double strand) [19 bp oligonucleotide (19mer)]
binding result [1]: no binding | binding result [2]: binds
